Publication PMC7815748
These are yes or no findings as the source states them, for the method shown. Binding seen in cells or lysates may run through a third protein. Some binding calls cover weakened binding; strength is not graded here.

Protein sequences, listed by entry. Tags and fused reporters are not part of them.
UniProt O75874: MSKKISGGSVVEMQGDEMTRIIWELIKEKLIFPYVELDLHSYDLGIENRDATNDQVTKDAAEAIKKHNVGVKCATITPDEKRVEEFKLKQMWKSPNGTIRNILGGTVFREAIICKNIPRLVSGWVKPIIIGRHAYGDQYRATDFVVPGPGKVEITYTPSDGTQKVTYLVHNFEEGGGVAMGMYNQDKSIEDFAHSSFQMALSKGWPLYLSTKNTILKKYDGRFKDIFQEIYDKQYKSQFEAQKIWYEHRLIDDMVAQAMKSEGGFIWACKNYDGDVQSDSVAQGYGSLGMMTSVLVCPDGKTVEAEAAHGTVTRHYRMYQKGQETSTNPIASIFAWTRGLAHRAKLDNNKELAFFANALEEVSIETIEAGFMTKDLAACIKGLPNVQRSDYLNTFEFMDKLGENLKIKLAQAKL

Columns and labels:
[1] = biological target: activator of HSP90 ATPase activity 1 (AHA1) (human (endogenous in human cell lines; line not named for the co-IP)) (UniProt O95433); experiment: co-IP; endogenous proteins; cleared cell lysates (1% Nonidet P-40, 150 mM NaCl, 100 mM HEPES) incubated with Protein G- or Protein A-Sepharose and the appropriate antibody (anti-AHA1 or anti-IDH1; control IgG) overnight at 4 °C; washed three times; western blot
[2] = biological target: isocitrate dehydrogenase 1 (IDH1) (human (endogenous in human cell lines; line not named for the co-IP)) (UniProt O75874); experiment: as above

Substance	binding [1]	binding [2]
Heat-shock protein 90 alpha (Hsp90α) (from UniProt P07900 1-732)	binds	–
activator of HSP90 ATPase activity 1 (AHA1) (from UniProt O95433 1-338)	–	binds
isocitrate dehydrogenase 1 (IDH1) (from UniProt O75874 1-414) (enzyme)	binds	–
